{"source": "paper PMC5840332", "about": "“Disease-associated missense mutations in GluN2B subunit alter NMDA receptor ligand binding and ion channel properties” (Nature Communications, 2018)", "origin": "cited, not measured here", "tested_on": "NMDAR channel", "parameters": "method as in earlier work", "conditions": "ref 28 Blanpied et al., cited from earlier work"}
{"smiles": "CC12CC3CC(C)(C1)CC(N)(C3)C2", "note": "[Memantine, memantine]", "values": [{"measurement": "V0 of primary channel site for memantine", "setting": "primary channel site", "result": 31.5, "unit": "mV"}, {"measurement": "V0 of second site for memantine", "setting": "second site", "result": 67.2, "unit": "mV"}]}
